From PubChem BioAssay AID485298 (National Center for Advancing Translational Sciences (NCATS), 2010)
Hit rate of the full screen: of about 320,000 compounds, about 740 (0.23%) were called active. Inconclusive means that the source gave no clear call. Such entries were picked first, then a sample of the others. Calls follow the shape of the dose curve; as a rule, active = well fitted activation curve with a large enough effect; inconclusive = small, poorly fitted or top-dose-only effect; inactive = no such curve, though single readings can be large or run the other way. A potency beside an inconclusive call is a rough fit, not a confirmed value. More than one record can exist for a structure, and the calls need not agree.

Assay: qHTS Assay for Small Molecule Inhibitors of Mitochondrial Division or Activators of Mitochondrial Fusion; also: nearly all actives have a fitted effect of over 45% in size;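 as to growth rescue (activation): temperature-sensitive fusion mutants such as fzo1-1 at 37 °C on non-fermentable ethanol glycerol medium; % of control where 0% means no effect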
Details: S. cerevisiae fusion-defective mutant growth rescue, CellTiterGlo 48 h; growth rescue (activation): at 46.1 µM (top of the series) unless noted
Method in brief: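 Compounds are tested for their ability to restore growth of mitochondrial fusion-defective yeast strains at non-permissive 37C in YPEG medium over 48 hours. Viability is quantified by luciferase luminescence.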
Potency is read from the fitted curve at half-maximal effect.

| SMILES | Potency | growth rescue (activation) |
| --- | --- | --- |
| O=S(=O)(c1cccc2c(Cl)cccc12)N1CCCNCC1 | inconclusive: 20.6 µM [activator, single point] | – |
| C=C(C)COc1ccc(-c2n[nH]c(C)c2-c2ccccc2)c(O)c1 | inconclusive: 25.1 µM [activator, single point] | – |
| O=C(Nc1cccc(Cl)c1)Nc1ccc2nccnc2c1 | – | inactive: -5.5% |
| CCc1ccc(NS(=O)(=O)c2ccc(OC)c(C)c2)cc1 | inconclusive: 28.2 µM [activator, single point] | – |
| CC(C)CCSc1nc(N)c(C#N)cc1C#N | active: 11.2 µM | – |
| CN(C(=O)c1nn(C)c2c1CSc1ccccc1-2)c1ccc(F)cc1 | inconclusive: 8.91 µM [activator, partial curve, poor fit] | – |
| CCOC(=O)c1cnc(-n2cc(C)cn2)nc1Nc1ccccc1OCC | – | inactive: -8.71% |
| CCOC(=O)CNC(=S)N(Cc1ccccc1)Cc1ccccc1F | inconclusive: 35.5 µM [activator, single point] | – |
| Cn1ncc2c(NNC(=O)C3CCCCC3)ncnc21 | inconclusive: 22.4 µM [activator, single point] | – |
| O=C(Nc1ccccc1F)n1ncc2cc(Cl)ccc21 | active: 5.62 µM | – |
| COc1cc2cc(C(=O)O)[nH]c2c(OC)c1OC | – | inactive: -19.7% |
| NNc1nc2c(-c3cccc(C(F)(F)F)c3)nnn2c2ccccc12 | inconclusive: 14.1 µM [activator, partial curve] | – |
| CC(=O)N(C(C)=O)c1nc2nc(C)cc(C)n2n1 | inconclusive: 35.5 µM [activator, partial curve] | – |
| O=C(CCC1CCCC1)Nc1cccn(Cc2ccccc2Br)c1=O | inconclusive: 15.8 µM [activator, single point] | – |
| CC(NS(=O)(=O)c1ccccc1)C(c1cccs1)N1CCN(c2ccccc2)CC1 (stereo unspecified) | inconclusive: 12.6 µM [activator, single point] | – |
| CC(Oc1ccc(F)cc1)C(=O)Nc1nc(-c2ccccn2)cs1 (stereo unspecified) | inconclusive: 35.5 µM [activator, single point] | – |
| O=C(Cn1nnc(-c2cc(C(F)(F)F)cc(C(F)(F)F)c2)n1)NNC(=S)Nc1ccc(Cl)cc1 | inconclusive: 35.5 µM [activator, single point] | – |
| O=C(CN1C(=O)CC(c2ccccc2)S(=O)(=O)c2ccccc21)N1CCOCC1 (stereo unspecified) | inconclusive: 20 µM [activator, single point] | – |
| Cc1sc(NC(=O)CCCC(=O)O)c(C#N)c1C | – | inactive: -4.04% |
| CC1(OC(=O)C2CCCC2)C(=O)C=C2C=C(c3ccsc3)N(Cc3ccccc3)C=C2C1=O (stereo unspecified) | inconclusive: 35.5 µM [activator, single point] | – |
| CN(CC(=O)Nc1ccc(F)cc1)C(=O)COC(=O)c1ccccc1 | – | inactive: -2.28% |
| N#Cc1ccc2c(c1)C[C@]1(c3ccsc3)OC3=C(C(=O)OC4(CCCCC4)C3)C2O1 | – | inactive: 2.33% [at 9.22 µM] |
| COc1cccc(-n2nnc(S(=O)(=O)c3ccc(C)cc3)c2N)c1 | – | inactive: -5.38% |
| Clc1cc(Cl)c(Cl)cc1Cl | – | inactive: 3.75% |

| SMILES | Potency | growth rescue (activation) |
| --- | --- | --- |
| Cc1ccccc1N(C(=O)c1cccs1)c1nc2ccccc2s1 | inconclusive: 14.1 µM [activator, partial curve] | – |
| Cc1nc(-c2ccc(NC(=O)c3ccccc3)cc2)cs1 | – | inactive: -1.34% |
| CN(C)CCN(C(=O)c1ccc2c(c1)OCCO2)c1nc2ccc(Cl)cc2s1 | – | inactive: 2.84% |
| O=C(O)c1ccc(CSc2nnc(-c3ccc(Cl)cc3)o2)cc1 | – | inactive: 7.1% |
| O=C(Nc1ccc(C(F)(F)F)cc1)N1CCN(c2ccnc3cc(Cl)ccc23)CC1 | inconclusive: 12.6 µM [activator, single point] | – |
| COc1ccc(C(=O)NC2(C(F)(F)F)NC(=O)N(CCCc3ccccc3)C2=O)c(OC)c1OC (stereo unspecified) | inconclusive: 12.6 µM [activator, partial curve] | – |
| Cc1ccc(-n2nc(C)c(Sc3ccccc3[N+](=O)[O-])c2N)cc1 | inconclusive: 35.5 µM [activator, single point] | – |
| COc1ccc(N2CC(O)=C(c3nc(-c4ccc(F)cc4)cs3)C2=N)cc1Cl | inconclusive: 35.5 µM [activator, partial curve] | – |
| O=C1C2C3C=CC(C3)C2C(=O)N1c1ccc(-c2nc3ccccc3o2)cc1 (stereo unspecified) | – | inactive: 3.81% |
| NS(=O)(=O)C#Cc1ccccc1 | inconclusive: 18.4 µM [activator, single point] | – |
| c1ccc(C(CN2CCOCC2)c2ccccc2)cc1 | – | inactive: -2.94% |
| O=S(=O)(Nc1cccc(CCc2ccccn2)c1)c1cc(Cl)ccc1Cl | inconclusive: 8.91 µM [activator, partial curve] | – |
| c1ccc(CN2CCC3(CCCc4ccccc43)CC2)cc1 | active: 23.1 µM | – |
| CCOC(=O)N1CCN(C(=O)c2ccc3c(c2)N=C(C)c2cc(Cl)ccc2S3)CC1 | inconclusive: 11.2 µM [activator, partial curve] | – |
| Cc1ccc(S(=O)(=O)C(c2ccccc2)c2c(C)noc2C)cc1 (stereo unspecified) | inconclusive: 17.8 µM [activator, single point] | – |
| c1nc(NCc2ccc3c(c2)OCO3)c2cc(-c3ccc4c(c3)OCCO4)ccc2n1 | inconclusive: 20 µM [activator, single point] | – |
| CC(C)(C)C1CCc2c(C(=O)NNC(=O)/C=C/C(=O)O)csc2C1 (stereo unspecified) | – | inactive: -0.163% |
| CC(C)C1Cc2c(sc3ncnc(NN)c23)CO1 (stereo unspecified) | – | inactive: 0.849% |
| CCn1c(O)c(C=Nc2ccccc2)sc1=S | – | inactive: -4.76% |
| Cc1ccc(CCNC(=O)C2CC(c3ccccc3C(F)(F)F)=NO2)cc1 (stereo unspecified) | inconclusive: 11.2 µM [activator, partial curve] | – |
| COCCn1c(SCC(=O)c2ccccc2)nc2ccccc2c1=O | inconclusive: 11.2 µM [activator, partial curve] | – |
| CC(C)(C)NC(=O)c1ccc2c(c1)C1C3CCC(C3)C1C(c1ccccc1)N2 (stereo unspecified) | inconclusive: 7.08 µM [activator, partial curve] | – |
| O=S(=O)(Cc1ccccc1Cl)N1CCN(Cc2ccc3c(c2)OCO3)CC1 | inconclusive: 17.8 µM [activator, single point] | – |
| CCn1c(SCc2cccc(F)c2)nc2c(c1=O)SCC2 | inconclusive: 35.5 µM [activator, single point] | – |

| SMILES | Potency | growth rescue (activation) |
| --- | --- | --- |
| O=C(O)/C=C\C(=O)Nc1ccc(N2CCN(c3ccc(Cl)c(Cl)c3)CC2)cc1 | inconclusive: 7.08 µM [activator, partial curve, poor fit] | – |
| CC(=O)OCC1=C(C(=O)O)N2C(=O)C(NC(=O)c3ccc(COc4cccc(Cl)c4Cl)o3)C2SC1 (stereo unspecified) | – | inactive: -2.79% |
| Cc1ccc2cccc(N=Cc3c(C)[nH]n(-c4ccccc4)c3=O)c2n1 | – | inactive: 7.18% |
| O=S(=O)(Nc1ccn(-c2ccccc2)n1)c1ccc(Br)cc1 | inconclusive: 31.6 µM [activator, single point] | – |
| CC1(C)Cc2c(sc(NC(=O)C(=O)N3CCCC3)c2C(N)=O)CO1 | inconclusive: 2.82 µM [activator, single point] | – |
| O=C(COC(=O)c1ccc(NS(=O)(=O)c2ccc(F)c(F)c2)cc1)NCC1CCCO1 (stereo unspecified) | inconclusive: 12.6 µM [activator, partial curve] | – |
| COc1cccc(CNc2ccc(N3CCC(C)CC3)cc2)c1OC | – | inactive: 0.819% |
| OCc1ccc2c(c1)c(-c1ccc3c(c1)OCCO3)c(-c1ccccc1)n2-c1ccccc1 | inconclusive: 22.4 µM [activator, single point] | – |
| CCN(CC)S(=O)(=O)c1cccc(-c2n[nH]c(=S)n2CC(C)C)c1 | inconclusive: 11.2 µM [activator, partial curve] | – |
| COc1ccc(C2CC(c3ccc(OC)cc3OC(C)=O)=NN2C(=O)c2ccccc2)cc1 (stereo unspecified) | inconclusive: 12.6 µM [activator, partial curve] | – |
| Cc1cc(C)c2c3c(sc2n1)C(c1cccc(F)c1)C(C#N)=C(N)O3 (stereo unspecified) | inconclusive: 11.2 µM [activator, partial curve] | – |
| COc1cc(C(C(=O)NC(C)(C)C)N(C(=O)CNC(=O)c2cccs2)c2ccc(C(C)C)cc2)cc(OC)c1OC (stereo unspecified) | – | inactive: -0.605% |
| O=c1c2ccccc2c(-c2ccc(Cl)cc2)nn1-c1ccccc1 | inconclusive: 12.6 µM [activator, partial curve] | – |
| O=C(NC(=S)Nc1cccc2ncccc12)c1cccs1 | – | inactive: -0.776% |
| CCOC(=O)C(=CNc1ccc(NC2=NCC(C)S2)cc1)C(=O)OCC (stereo unspecified) | inconclusive: 25.1 µM [activator, single point] | – |
| Cc1cc(CNC(=O)C2CCC(=O)N(CCc3cccc(F)c3)C2)nn1C (stereo unspecified) | inconclusive: 5.62 µM [activator, single point] | – |
| CCCn1c(SCC(=O)C(C)(C)C)nc2ccccc21 | – | inactive: -3.04% |
| COC(=O)c1c(C)oc2ccc(N(C(=O)c3ccncc3)S(=O)(=O)c3ccc4ccccc4c3)cc12 | inconclusive: 17.8 µM [activator, partial curve] | – |
| Cc1ccc(C(=O)CC2C(=O)N(c3ccccc3)C(=S)N2c2ccccc2)cc1 (stereo unspecified) | inconclusive: 35.5 µM [activator, single point] | – |
| Cc1ccc(OCCCCN(C)Cc2ccccc2)c(Br)c1 | inconclusive: 35.5 µM [activator, single point] | – |
| CC(=O)c1ccc(-c2ccc(C(=O)N3CCCc4ccccc43)o2)cc1 | inconclusive: 14.1 µM [activator, partial curve] | – |
| CN1CCN(c2ccc(S(=O)(=O)N3CCCCC3)cc2NC(=O)c2ccc3ccccc3c2)CC1 | – | inactive: -8.89% |
| Brc1ccc(-c2nnc3n2C2(CCCC2)Cc2ccccc2-3)o1 | inconclusive: 14.1 µM [activator, single point] | – |

An excerpt of these results, as labelled records.
Cc1ccc2cccc(N=Cc3c(C)[nH]n(-c4ccccc4)c3=O)c2n1
  growth rescue (activation): inactive: 7.18%
CC1(C)Cc2c(sc(NC(=O)C(=O)N3CCCC3)c2C(N)=O)CO1
  Potency: inconclusive: 2.82 µM [activator, single point]
O=C(NC(=S)Nc1cccc2ncccc12)c1cccs1
  growth rescue (activation): inactive: -0.776%
Cc1cc(CNC(=O)C2CCC(=O)N(CCc3cccc(F)c3)C2)nn1C (stereo unspecified)
  Potency: inconclusive: 5.62 µM [activator, single point]
